Some of the results follow.
How the values were obtained:
Test in all cases: glycan array binding signal (z-score within array); higher = stronger binding
Conditions in all cases: glycan notation: IUPAC condensed, linker removed
[1] = molecular target: Fuc(a1-3)[Gal3S(b1-4)]GlcNAc6S
Procedure, shortened: (§1)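 The Consortium for Functional Glycomics database supplied 3228 glycan arrays, of which those lacking an available protein sequence were dropped. The binding signal, a within-array Z-score, was averaged across arrays of the same protein sequence and across linkers. Negative scores can be read as non-binding.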

[2] = molecular target: Fuc(a1-3)[GalNAc(b1-4)]GlcNAc
Procedure, shortened: as §1

[3] = molecular target: Fuc(a1-3)[GalNAc(b1-4)]GlcNAc6S
Procedure, shortened: as §1

Fuc(a1-4)GlcNAc = molecular target: Fuc(a1-4)GlcNAc
Procedure, shortened: as §1

Fuc(b1-3)GlcNAc = molecular target: Fuc(b1-3)GlcNAc
Procedure, shortened: as §1

Gal(a1-2)Gal = molecular target: Gal(a1-2)Gal
Procedure, shortened: as §1

Gal(a1-3)Gal = molecular target: Gal(a1-3)Gal
Procedure, shortened: as §1

Gal(a1-3)Gal(b1-3)GlcNAc = molecular target: Gal(a1-3)Gal(b1-3)GlcNAc
Procedure, shortened: as §1

[4] = molecular target: Gal(a1-3)Gal(b1-3)GlcNAc(b1-2)Man
Procedure, shortened: as §1

[5] = molecular target: Gal(a1-3)Gal(b1-3)GlcNAc(b1-2)Man(a1-3)[Gal(a1-3)Gal(b1-3)GlcNAc(b1-2)Man(a1-6)]Man(b1-4)GlcNAc(b1-4)GlcNAc
Procedure, shortened: as §1

[6] = molecular target: Gal(a1-3)Gal(b1-3)GlcNAc(b1-3)GalNAc
Procedure, shortened: as §1

[7] = molecular target: Gal(a1-3)Gal(b1-3)GlcNAc(b1-6)GalNAc
Procedure, shortened: as §1

[8] = molecular target: Gal(a1-3)Gal(b1-3)[Fuc(a1-4)]GlcNAc(b1-2)Man(a1-3)[Gal(a1-3)Gal(b1-3)[Fuc(a1-4)]GlcNAc(b1-2)Man(a1-6)]Man(b1-4)GlcNAc(b1-4)GlcNAc
Procedure, shortened: as §1

Gal(a1-3)Gal(b1-4)Glc = molecular target: Gal(a1-3)Gal(b1-4)Glc
Procedure, shortened: as §1

Gal(a1-3)Gal(b1-4)GlcNAc = molecular target: Gal(a1-3)Gal(b1-4)GlcNAc
Procedure, shortened: as §1

[9] = molecular target: Gal(a1-3)Gal(b1-4)GlcNAc(b1-2)Man
Procedure, shortened: as §1

[10] = molecular target: Gal(a1-3)Gal(b1-4)GlcNAc(b1-2)Man(a1-3)[Gal(a1-3)Gal(b1-4)GlcNAc(b1-2)Man(a1-6)]Man(b1-4)GlcNAc(b1-4)GlcNAc
Procedure, shortened: as §1

[11] = molecular target: Gal(a1-3)Gal(b1-4)GlcNAc(b1-3)GalNAc
Procedure, shortened: as §1

[12] = molecular target: Gal(a1-3)Gal(b1-4)GlcNAc(b1-6)GalNAc
Procedure, shortened: as §1

[13] = molecular target: Gal(a1-3)Gal(b1-4)[Fuc(a1-3)]GlcNAc
Procedure, shortened: as §1

[14] = molecular target: Gal(a1-3)Gal(b1-4)[Fuc(a1-3)]GlcNAc(b1-2)Man(a1-3)[Gal(a1-3)Gal(b1-4)[Fuc(a1-3)]GlcNAc(b1-2)Man(a1-6)]Man(b1-4)GlcNAc(b1-4)GlcNAc
Procedure, shortened: as §1

Gal(a1-3)GalNAc = molecular target: Gal(a1-3)GalNAc
Procedure, shortened: as §1

[15] = molecular target: Gal(a1-3)[Gal(a1-4)]Gal(b1-4)GlcNAc
Procedure, shortened: as §1

[16] = molecular target: Gal(a1-4)Gal(b1-3)GlcNAc(b1-2)Man(a1-3)[Gal(a1-4)Gal(b1-3)GlcNAc(b1-2)Man(a1-6)]Man(b1-4)GlcNAc(b1-4)GlcNAc
Procedure, shortened: as §1

Gal(a1-4)Gal(b1-4)Glc = molecular target: Gal(a1-4)Gal(b1-4)Glc
Procedure, shortened: as §1

Gal(a1-4)Gal(b1-4)GlcNAc = molecular target: Gal(a1-4)Gal(b1-4)GlcNAc
Procedure, shortened: as §1

[17] = molecular target: Gal(a1-4)Gal(b1-4)GlcNAc(b1-2)Man(a1-3)[Gal(a1-4)Gal(b1-4)GlcNAc(b1-2)Man(a1-6)]Man(b1-4)GlcNAc(b1-4)GlcNAc
Procedure, shortened: as §1

[18] = molecular target: Gal(a1-4)Gal(b1-4)GlcNAc(b1-3)Gal(b1-4)Glc
Procedure, shortened: as §1

Gal(a1-4)GlcNAc = molecular target: Gal(a1-4)GlcNAc
Procedure, shortened: as §1

Gal(a1-6)Glc = molecular target: Gal(a1-6)Glc
Procedure, shortened: as §1

Gal(b1-2)Gal = molecular target: Gal(b1-2)Gal
Procedure, shortened: as §1

Gal(b1-3)Gal = molecular target: Gal(b1-3)Gal
Procedure, shortened: as §1

Gal(b1-3)Gal(b1-4)GlcNAc = molecular target: Gal(b1-3)Gal(b1-4)GlcNAc
Procedure, shortened: as §1

Gal(b1-3)GalNAc = molecular target: Gal(b1-3)GalNAc
Procedure, shortened: as §1

[19] = molecular target: Gal(b1-3)GalNAc(a1-3)[Fuc(a1-2)]Gal(b1-4)Glc
Procedure, shortened: as §1

[20] = molecular target: Gal(b1-3)GalNAc(a1-3)[Fuc(a1-2)]Gal(b1-4)GlcNAc
Procedure, shortened: as §1

Gal(b1-3)GalNAc(b1-3)Gal = molecular target: Gal(b1-3)GalNAc(b1-3)Gal
Procedure, shortened: as §1

[21] = molecular target: Gal(b1-3)GalNAc(b1-3)Gal(a1-4)Gal(b1-4)Glc
Procedure, shortened: as §1

[22] = molecular target: Gal(b1-3)GalNAc(b1-4)Gal(b1-4)Glc
Procedure, shortened: as §1

[23] = molecular target: Gal(b1-3)GalNAc(b1-4)[Neu5Ac(a2-3)]Gal(b1-4)Glc
Procedure, shortened: as §1

Gal(b1-3)GlcNAc = molecular target: Gal(b1-3)GlcNAc
Procedure, shortened: as §1

[24] = molecular target: Gal(b1-3)GlcNAc(a1-3)Gal(b1-4)GlcNAc
Procedure, shortened: as §1

[25] = molecular target: Gal(b1-3)GlcNAc(a1-6)Gal(b1-4)GlcNAc
Procedure, shortened: as §1

Gal(b1-3)GlcNAc(b1-2)Man = molecular target: Gal(b1-3)GlcNAc(b1-2)Man
Procedure, shortened: as §1

[26] = molecular target: Gal(b1-3)GlcNAc(b1-2)Man(a1-3)[Gal(b1-3)GlcNAc(b1-2)Man(a1-6)]Man(b1-4)GlcNAc(b1-4)GlcNAc
Procedure, shortened: as §1

B1: SJCP3842 (Schistosoma japonicum) (protein)
chain: MFKMRIINLVNISTVLLLINLLQTKSRLVGKENGFMLTVSIYGAQLSDKMTSVPVSWTIDYEDPEKSAFKKLVTDSCDTFSEYVKSQIPKGSVDGQCTSHIFQRPGSGSGVSISLTLSFIYVDVTQPDTVALKTELEKHFANFVTIHSHKITQAQFRINQKAIVIPTGDKDAIDGSKWKIIAIIALVALAIVVIGGFIYICVK
For B1, the “glycan array binding signal (z-score)” value [1] was 0.041, the “glycan array binding signal (z-score)” value [2] was 1.98 and the “glycan array binding signal (z-score)” value [3] was -0.719. For the same binder, the “glycan array binding signal (z-score)” value (Fuc(a1-4)GlcNAc) was 4.44, the “glycan array binding signal (z-score)” value (Fuc(b1-3)GlcNAc) was 0.984 and the “glycan array binding signal (z-score)” value (Gal(a1-2)Gal) was -0.873. For the same binder, the “glycan array binding signal (z-score)” value (Gal(a1-3)Gal) was 0.544, the “glycan array binding signal (z-score)” value (Gal(a1-3)Gal(b1-3)GlcNAc) was -1.36 and the “glycan array binding signal (z-score)” value [4] was -0.278. The “glycan array binding signal (z-score)” value [5] was 3.31, the “glycan array binding signal (z-score)” value [6] was 0.153 and the “glycan array binding signal (z-score)” value [7] was 1.28. The “glycan array binding signal (z-score)” value [8] was 2.45, the “glycan array binding signal (z-score)” value (Gal(a1-3)Gal(b1-4)Glc) was -0.327 and the “glycan array binding signal (z-score)” value (Gal(a1-3)Gal(b1-4)GlcNAc) was -0.944. For the same binder, the “glycan array binding signal (z-score)” value [9] was -1.09, the “glycan array binding signal (z-score)” value [10] was -0.76 and the “glycan array binding signal (z-score)” value [11] was -0.487. The “glycan array binding signal (z-score)” value [12] was -0.327, the “glycan array binding signal (z-score)” value [13] was 0.63 and the “glycan array binding signal (z-score)” value [14] was -0.183. The “glycan array binding signal (z-score)” value (Gal(a1-3)GalNAc) was -1, the “glycan array binding signal (z-score)” value [15] was 0.71 and the “glycan array binding signal (z-score)” value [16] was -0.112. For the same binder, the “glycan array binding signal (z-score)” value (Gal(a1-4)Gal(b1-4)Glc) was -1.04, the “glycan array binding signal (z-score)” value (Gal(a1-4)Gal(b1-4)GlcNAc) was 0.115 and the “glycan array binding signal (z-score)” value [17] was 2.55. For the same binder, the “glycan array binding signal (z-score)” value [18] was -0.72, the “glycan array binding signal (z-score)” value (Gal(a1-4)GlcNAc) was -1.21 and the “glycan array binding signal (z-score)” value (Gal(a1-6)Glc) was -1.59. For the same binder, the “glycan array binding signal (z-score)” value (Gal(b1-2)Gal) was -1.3, the “glycan array binding signal (z-score)” value (Gal(b1-3)Gal) was 1.3 and the “glycan array binding signal (z-score)” value (Gal(b1-3)Gal(b1-4)GlcNAc) was 1.57. The “glycan array binding signal (z-score)” value (Gal(b1-3)GalNAc) was 0.541, the “glycan array binding signal (z-score)” value [19] was 0.236 and the “glycan array binding signal (z-score)” value [20] was -0.185. For the same binder, the “glycan array binding signal (z-score)” value (Gal(b1-3)GalNAc(b1-3)Gal) was -0.234, the “glycan array binding signal (z-score)” value [21] was 0.177 and the “glycan array binding signal (z-score)” value [22] was 0.695. The “glycan array binding signal (z-score)” value [23] was 0.896, the “glycan array binding signal (z-score)” value (Gal(b1-3)GlcNAc) was -0.593 and the “glycan array binding signal (z-score)” value [24] was -0.424. The “glycan array binding signal (z-score)” value [25] was 0.616, the “glycan array binding signal (z-score)” value (Gal(b1-3)GlcNAc(b1-2)Man) was 1.47 and the “glycan array binding signal (z-score)” value [26] was 0.14.
